According to publication PMC9191643, “Cryo-EM structure of DNA-bound Smc5/6 reveals DNA clamping enabled by multi-subunit conformational changes”:
These are yes or no findings as the source states them, for the method shown. Some binding calls cover weakened binding; strength is not graded here. One block for each binder: values may come before it.

Tests used:
Test in all cases: cryo-EM structure; purified hexameric Smc5/6-EQ complex (0.3 mg/mL) incubated with 1 mM ATP, 2 mM MgCl2 and 1.5 uM 72-bp dsDNA at 4 °C for 2 h; map at 3.8 Å; both purified
Nse3 (S. cerevisiae) = target: T1, Nse3 (S. cerevisiae) (UniProt Q05541)
T1 sequence: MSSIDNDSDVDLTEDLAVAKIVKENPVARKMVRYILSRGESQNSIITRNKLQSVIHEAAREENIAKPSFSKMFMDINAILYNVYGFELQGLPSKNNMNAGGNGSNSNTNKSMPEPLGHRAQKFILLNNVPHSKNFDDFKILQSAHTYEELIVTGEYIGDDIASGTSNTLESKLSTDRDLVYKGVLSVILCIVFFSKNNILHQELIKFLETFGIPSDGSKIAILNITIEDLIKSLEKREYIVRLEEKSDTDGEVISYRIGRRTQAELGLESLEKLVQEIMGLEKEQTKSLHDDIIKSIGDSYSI

[1] = target: T2, Smc6 (E1048Q) (S. cerevisiae) (UniProt Q12749)
T2 sequence: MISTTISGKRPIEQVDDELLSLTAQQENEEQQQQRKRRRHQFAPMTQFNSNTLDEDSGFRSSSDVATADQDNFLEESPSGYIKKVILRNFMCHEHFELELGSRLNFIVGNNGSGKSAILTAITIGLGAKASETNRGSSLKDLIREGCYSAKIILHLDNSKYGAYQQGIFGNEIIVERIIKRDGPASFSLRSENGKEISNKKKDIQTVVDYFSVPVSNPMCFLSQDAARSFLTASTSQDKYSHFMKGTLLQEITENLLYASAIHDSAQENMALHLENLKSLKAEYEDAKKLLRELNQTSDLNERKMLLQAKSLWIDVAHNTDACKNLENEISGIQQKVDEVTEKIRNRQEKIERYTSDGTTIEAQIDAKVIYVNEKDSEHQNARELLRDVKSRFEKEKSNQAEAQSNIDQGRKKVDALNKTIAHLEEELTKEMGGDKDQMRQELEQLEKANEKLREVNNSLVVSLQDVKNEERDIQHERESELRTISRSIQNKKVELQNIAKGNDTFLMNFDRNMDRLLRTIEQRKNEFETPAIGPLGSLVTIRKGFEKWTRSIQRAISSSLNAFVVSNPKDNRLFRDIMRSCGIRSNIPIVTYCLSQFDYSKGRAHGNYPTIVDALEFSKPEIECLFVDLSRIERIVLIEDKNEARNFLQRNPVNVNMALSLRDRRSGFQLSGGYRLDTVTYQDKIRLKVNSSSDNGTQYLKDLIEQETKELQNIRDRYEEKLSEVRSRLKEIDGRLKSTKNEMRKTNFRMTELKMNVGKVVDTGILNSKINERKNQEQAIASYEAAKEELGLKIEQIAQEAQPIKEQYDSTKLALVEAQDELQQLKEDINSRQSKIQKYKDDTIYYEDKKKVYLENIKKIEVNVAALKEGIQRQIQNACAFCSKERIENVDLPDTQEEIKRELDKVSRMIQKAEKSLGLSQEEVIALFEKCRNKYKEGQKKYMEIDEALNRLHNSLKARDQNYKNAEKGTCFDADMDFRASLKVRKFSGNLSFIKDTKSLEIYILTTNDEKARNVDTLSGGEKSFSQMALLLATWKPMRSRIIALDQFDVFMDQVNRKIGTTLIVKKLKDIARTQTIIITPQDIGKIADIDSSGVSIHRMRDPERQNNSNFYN

Nse1 (S. cerevisiae) = target: T3, Nse1 (S. cerevisiae) (UniProt Q07913)
T3 sequence: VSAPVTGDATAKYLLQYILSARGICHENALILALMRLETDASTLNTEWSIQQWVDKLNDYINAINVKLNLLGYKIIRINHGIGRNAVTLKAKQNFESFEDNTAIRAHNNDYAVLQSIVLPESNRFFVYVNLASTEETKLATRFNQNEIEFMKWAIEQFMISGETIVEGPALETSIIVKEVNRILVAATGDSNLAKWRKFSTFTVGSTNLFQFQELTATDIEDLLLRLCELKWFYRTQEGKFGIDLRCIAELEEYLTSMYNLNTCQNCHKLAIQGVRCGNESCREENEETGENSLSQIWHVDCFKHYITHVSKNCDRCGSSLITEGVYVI

[2] = target: T4, Smc5 (E1015Q) (S. cerevisiae) (UniProt Q08204)
T4 sequence: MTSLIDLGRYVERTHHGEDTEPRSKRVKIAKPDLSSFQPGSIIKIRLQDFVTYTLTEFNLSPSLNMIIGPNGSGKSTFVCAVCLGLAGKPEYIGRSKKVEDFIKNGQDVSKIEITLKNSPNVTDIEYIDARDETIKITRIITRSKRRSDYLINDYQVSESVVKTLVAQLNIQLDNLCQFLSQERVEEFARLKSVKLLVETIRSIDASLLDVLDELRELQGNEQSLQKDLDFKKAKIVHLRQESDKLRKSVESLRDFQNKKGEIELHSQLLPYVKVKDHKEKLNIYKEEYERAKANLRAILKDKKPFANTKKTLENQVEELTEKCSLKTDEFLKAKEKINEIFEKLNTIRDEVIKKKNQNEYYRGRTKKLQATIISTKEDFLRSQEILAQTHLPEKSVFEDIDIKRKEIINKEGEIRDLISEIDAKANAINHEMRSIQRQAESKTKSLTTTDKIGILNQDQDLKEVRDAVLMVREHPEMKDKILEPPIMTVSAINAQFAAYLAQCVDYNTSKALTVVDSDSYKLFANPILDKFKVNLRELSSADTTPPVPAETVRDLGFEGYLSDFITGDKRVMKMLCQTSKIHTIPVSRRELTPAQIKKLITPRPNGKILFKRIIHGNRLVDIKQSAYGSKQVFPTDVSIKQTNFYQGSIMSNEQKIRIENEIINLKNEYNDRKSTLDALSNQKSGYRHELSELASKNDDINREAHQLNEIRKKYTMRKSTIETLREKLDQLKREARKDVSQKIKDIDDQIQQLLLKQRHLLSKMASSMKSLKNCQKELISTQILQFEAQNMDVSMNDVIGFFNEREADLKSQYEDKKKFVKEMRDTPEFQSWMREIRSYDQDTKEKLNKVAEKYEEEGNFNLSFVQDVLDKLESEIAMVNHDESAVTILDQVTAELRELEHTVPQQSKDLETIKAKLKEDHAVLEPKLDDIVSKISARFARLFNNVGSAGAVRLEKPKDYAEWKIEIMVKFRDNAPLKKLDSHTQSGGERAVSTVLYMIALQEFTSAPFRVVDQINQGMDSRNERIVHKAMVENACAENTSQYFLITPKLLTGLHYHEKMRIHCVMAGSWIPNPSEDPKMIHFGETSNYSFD

binding (Nse3 (S. cerevisiae)): binds
B1: Nse1 (protein, UniProt Q07913 8-336)
chain: T3 sequence

binding [1]: binds
B2: Smc5 (E1015Q) (protein, UniProt Q08204 1-1093)
chain: T4 sequence

binding (Nse3 (S. cerevisiae)): binds | binding (Nse1 (S. cerevisiae)): binds | binding [1]: binds | binding [2]: binds
B3: Nse4 (protein, UniProt P43124 1-402)
chain: MSSTVISRKRRNSTVTEPDSSGETRKQKKSRSDEKSSSSKDGDPQLEFKVLQGYRDLESEMHKGRAQVTRTGDIGVAMDNLNAVDSLFNKVIGIKNNGLFAHDARAMVSISELAQISVRNLKFDDSRSMVNLENIVNSLKRYMLKEHFKLNNIAENRNDLTLAADEQSAADQQEESDGDIDRTPDDNHTDKATSSFKATSMRHSYLQQFSHYNEFSQFNWFRIGALYNTISKNAPITDHLMGPLSIEKKPRVLTQRRRNNDQVGEKITAEKITQHSLNSTQQETTPEQVKKCFKKLSKKLGPEGSINLFKFIIDPNSFSRSIENLFYTSFLIKEGKLLMEHDEEGLPTIKIKQSISHTDSRSKEIERQRRRAAHQNHIIFQMDMPTWRKLIKKYNITSPFLD
